Assay [1] deals with N-terminal His- and Flag-tagged BZLF1 protein (RHF-BZLF1) (Epstein-Barr virus) (UniProt P03206). The experiment in a line: pull-down.
Assay [2] concerns the target BZLF1 protein in lytic replication-induced 293/EBV cells (Epstein-Barr virus) (UniProt P03206). The assay can be described thus: co-IP; 293/EBV cells, lytic infection induced by transfection of BZLF1 protein expression plasmid; MG132 for 4 h before harvesting, harvested 48 h post-transfection; IP and IB with the indicated antibodies.
The target of assay [3] is BZLF1 protein in lytic infection-induced Tet-BZLF1/B95-8 cells (Epstein-Barr virus) (UniProt P03206). The assay can be described thus: co-IP.
The target of assay [4] is BZLF1 protein, wild type, epitope-tagged (Epstein-Barr virus) (UniProt P03206). The experiment in a line: co-IP; lysates of 293T cells transiently expressing tagged proteins; immunoprecipitation and immunoblotting with the indicated antibodies; lysis buffer 50 mM Tris-HCl pH 7.6, 120 mM NaCl, 0.1% NP40, 1 mM EDTA; washed with NET-gel buffer. For orientation: Immunoblotting shows a protein as a band on a membrane.

Sequences of proteins named here, by UniProt entry; tags and fusion partners are left off.
UniProt P03206: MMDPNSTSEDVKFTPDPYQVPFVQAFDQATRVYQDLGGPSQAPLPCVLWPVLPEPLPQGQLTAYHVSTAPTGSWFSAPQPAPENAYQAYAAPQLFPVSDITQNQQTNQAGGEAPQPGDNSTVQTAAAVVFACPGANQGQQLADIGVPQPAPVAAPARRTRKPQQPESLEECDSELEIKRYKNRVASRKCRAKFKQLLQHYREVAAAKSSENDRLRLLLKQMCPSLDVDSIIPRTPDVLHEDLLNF
UniProt Q9UBF6: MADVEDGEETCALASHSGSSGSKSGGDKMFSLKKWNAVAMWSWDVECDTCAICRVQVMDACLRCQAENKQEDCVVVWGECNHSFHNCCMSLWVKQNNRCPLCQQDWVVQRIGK
UniProt Q93034: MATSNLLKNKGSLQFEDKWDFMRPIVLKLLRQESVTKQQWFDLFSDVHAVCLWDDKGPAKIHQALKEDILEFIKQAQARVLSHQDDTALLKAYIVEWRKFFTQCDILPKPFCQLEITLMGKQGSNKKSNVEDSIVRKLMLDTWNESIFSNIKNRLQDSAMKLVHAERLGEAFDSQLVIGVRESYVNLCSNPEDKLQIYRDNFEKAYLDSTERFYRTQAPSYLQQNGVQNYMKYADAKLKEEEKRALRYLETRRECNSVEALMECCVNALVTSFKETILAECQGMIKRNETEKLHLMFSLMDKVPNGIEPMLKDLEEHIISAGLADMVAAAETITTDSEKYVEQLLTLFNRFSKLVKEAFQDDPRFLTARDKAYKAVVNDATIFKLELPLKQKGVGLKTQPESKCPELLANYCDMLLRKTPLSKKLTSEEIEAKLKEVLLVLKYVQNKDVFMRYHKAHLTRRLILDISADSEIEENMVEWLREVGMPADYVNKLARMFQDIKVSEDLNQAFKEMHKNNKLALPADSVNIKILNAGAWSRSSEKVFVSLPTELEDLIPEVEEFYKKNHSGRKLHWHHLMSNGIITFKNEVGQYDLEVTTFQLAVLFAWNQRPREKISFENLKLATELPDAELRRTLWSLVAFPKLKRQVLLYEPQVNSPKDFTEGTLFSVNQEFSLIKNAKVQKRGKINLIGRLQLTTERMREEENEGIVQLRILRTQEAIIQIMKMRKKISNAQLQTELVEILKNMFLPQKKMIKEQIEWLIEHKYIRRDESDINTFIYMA
UniProt U3FS08: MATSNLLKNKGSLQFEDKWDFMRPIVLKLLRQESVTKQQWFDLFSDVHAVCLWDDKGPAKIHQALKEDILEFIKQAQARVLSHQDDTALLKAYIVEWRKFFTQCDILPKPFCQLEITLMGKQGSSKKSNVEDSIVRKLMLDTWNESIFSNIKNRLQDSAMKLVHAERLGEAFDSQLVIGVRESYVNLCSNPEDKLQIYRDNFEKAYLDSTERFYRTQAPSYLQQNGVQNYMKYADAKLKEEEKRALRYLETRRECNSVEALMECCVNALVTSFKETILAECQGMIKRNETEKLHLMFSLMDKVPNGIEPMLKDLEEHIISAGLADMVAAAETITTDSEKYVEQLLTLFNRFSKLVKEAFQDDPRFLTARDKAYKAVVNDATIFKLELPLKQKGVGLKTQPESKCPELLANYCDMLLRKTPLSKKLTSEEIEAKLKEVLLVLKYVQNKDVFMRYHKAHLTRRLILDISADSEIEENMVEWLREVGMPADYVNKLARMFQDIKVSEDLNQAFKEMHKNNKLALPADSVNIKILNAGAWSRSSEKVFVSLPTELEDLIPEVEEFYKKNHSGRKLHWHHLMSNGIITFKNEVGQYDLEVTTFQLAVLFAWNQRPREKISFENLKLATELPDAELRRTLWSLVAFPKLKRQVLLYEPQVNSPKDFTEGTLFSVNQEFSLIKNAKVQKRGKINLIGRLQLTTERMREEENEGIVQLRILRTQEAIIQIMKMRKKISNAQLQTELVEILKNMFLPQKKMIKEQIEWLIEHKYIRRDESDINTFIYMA
UniProt Q15370: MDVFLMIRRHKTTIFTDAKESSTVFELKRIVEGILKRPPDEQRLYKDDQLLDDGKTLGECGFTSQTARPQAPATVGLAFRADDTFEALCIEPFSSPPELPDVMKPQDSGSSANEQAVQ

No constants are given. Whether binding was seen depends on the method and setting. In cells and extracts the contact can be indirect. Some entries that bind do so weakly or less than the wild type.

For 3×myc-Rbx2 (from UniProt Q9UBF6 1-113), in assay [1], the binding result is “binds”.

In the case of “Cul5, endogenous in 293/EBV cells (from UniProt Q93034 1-780)”, in assay [2], the binding result was “binds”. Turning to “Cul5, endogenous in B95-8 cells (from UniProt U3FS08 1-780)”, the binding result in assay [3] is listed as “binds”. Regarding “Cul5, epitope-tagged (from UniProt Q93034 1-780)”, in assay [4], the binding entry is listed as “binds”. For the substance “Elongin B (baculovirus) (from UniProt Q15370 1-118)”, the binding result in assay [1] was “binds”. For HA-Cul5 (from UniProt Q93034 1-780), in assay [1], the binding result is given as “binds”.

For the origin of these results see PMC2712087.
